PMC3161941
These are yes or no findings as the source states them, for the method shown. Some binding calls cover weakened binding; strength is not graded here. Sequences can lack the tags named with a protein.

Protein sequences, listed by entry. Tags and fused reporters are not part of them.
UniProt P39745: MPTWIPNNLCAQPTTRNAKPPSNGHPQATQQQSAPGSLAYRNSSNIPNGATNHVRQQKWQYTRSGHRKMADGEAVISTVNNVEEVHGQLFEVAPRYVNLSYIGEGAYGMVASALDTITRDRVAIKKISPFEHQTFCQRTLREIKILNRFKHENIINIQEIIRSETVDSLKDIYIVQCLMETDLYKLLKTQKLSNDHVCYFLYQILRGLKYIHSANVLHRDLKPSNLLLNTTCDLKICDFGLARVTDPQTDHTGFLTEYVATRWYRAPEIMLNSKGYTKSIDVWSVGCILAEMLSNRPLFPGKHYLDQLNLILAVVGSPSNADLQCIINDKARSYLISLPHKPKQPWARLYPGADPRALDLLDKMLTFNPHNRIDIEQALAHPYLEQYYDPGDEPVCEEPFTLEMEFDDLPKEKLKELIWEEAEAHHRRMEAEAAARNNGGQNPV
UniProt P28482: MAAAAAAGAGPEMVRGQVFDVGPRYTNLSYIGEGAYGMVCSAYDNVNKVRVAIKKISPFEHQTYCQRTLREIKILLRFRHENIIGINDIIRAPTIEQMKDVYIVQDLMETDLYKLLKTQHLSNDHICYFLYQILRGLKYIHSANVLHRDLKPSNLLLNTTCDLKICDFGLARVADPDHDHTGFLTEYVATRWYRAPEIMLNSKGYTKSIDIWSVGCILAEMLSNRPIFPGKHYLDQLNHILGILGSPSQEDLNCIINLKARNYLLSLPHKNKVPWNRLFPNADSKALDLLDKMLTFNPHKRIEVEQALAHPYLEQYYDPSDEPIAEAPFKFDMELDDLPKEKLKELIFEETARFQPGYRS

Experiments:
[1] = molecular target: T1, human DUSP6 fused to the Gal4 DNA binding domain (human) (UniProt Q16828); assay: two-hybrid; Gal4 system (pGBK-T7 and pGAD-T7 fusions), diploid yeast from mating pJ69-4A and pJ69-4alpha; growth on -Leu -Trp -His -Ade after 72 hrs at 30°C and beta-galactosidase activity
T1 sequence: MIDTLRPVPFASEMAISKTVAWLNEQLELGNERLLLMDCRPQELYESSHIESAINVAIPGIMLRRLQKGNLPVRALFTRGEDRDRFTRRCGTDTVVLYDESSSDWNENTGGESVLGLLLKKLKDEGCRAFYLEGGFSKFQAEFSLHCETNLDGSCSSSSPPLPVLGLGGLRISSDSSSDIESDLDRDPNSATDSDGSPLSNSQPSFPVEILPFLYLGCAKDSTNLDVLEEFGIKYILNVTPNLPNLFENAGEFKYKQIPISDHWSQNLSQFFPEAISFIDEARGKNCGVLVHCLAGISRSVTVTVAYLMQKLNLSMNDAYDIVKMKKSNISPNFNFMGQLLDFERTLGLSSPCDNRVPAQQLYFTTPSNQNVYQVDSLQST

[2] = molecular target: T2, LIP-1 (C. elegans MAPK phosphatase) fused to the Gal4 DNA binding domain (C. elegans) (UniProt V6CIV8); assay: as above
T2 sequence: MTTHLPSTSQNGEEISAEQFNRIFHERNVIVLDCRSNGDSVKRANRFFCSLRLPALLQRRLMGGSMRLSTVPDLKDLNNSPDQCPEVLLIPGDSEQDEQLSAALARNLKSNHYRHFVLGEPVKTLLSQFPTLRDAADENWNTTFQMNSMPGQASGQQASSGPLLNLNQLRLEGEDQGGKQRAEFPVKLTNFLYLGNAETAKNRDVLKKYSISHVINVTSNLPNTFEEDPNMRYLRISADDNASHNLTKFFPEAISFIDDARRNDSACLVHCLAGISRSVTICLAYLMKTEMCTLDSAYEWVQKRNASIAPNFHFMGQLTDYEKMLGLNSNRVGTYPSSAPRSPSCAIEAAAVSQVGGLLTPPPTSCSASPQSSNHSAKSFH

Substance	binding [1]	binding [2]
MPK-1B (C. elegans ERK orthologue, larger germline isoform) fused to the Gal4 activation domain (from UniProt P39745 1-444) (enzyme)	binds	binds
mammalian ERK2 fused to the Gal4 activation domain (from UniProt P28482 1-360) (enzyme)	–	binds
